# Data reported in the supplement of paper PMC8728848.
# The list shows a part of the results.
# B1: AntigenI/IIC123 (Streptococcus mutans), C9E3B4 (protein)
# chain: MASMTGGQQMGRIHFHYFKLAVQPQVNKEIRNNNDINIDRTLVAKQSVVKFQLKTADLPAGRDETTSFVLVDPLPSGYQFNPEATKAASPGFDVTYDNATNTVTFKATAATLATFNADLTKSVATIYPTVVGQVLNDGATYKNNFTLTVNDAYGIKSNVVRVTTPGKPNDPDNPNNNYIKPTKVNKNENGVVIDGKTVLAGSTNYYELTWDLDQYKNDRSSADTIQKGFYYVDDYPEEALELRQDLVKITDANGNEVTGVSVDNYTNLEAAPQEIRDVLSKAGIRPKGAFQIFRADNPREFYDTYVKTGIDLKIVSPMVVKKQMGQTGGSYENQAYQIDFGNGYASNIIINNVPKINPKKDVTLTLDPADTNNVDGQTIPLNTVFNYRLIGGIIPADHSEELFEYNFYDDYDQTGDHYTGQYKVFAKVDITFKDGSIIKSGAELTQYTTAEVDTAKGAITIKFKEAFLRSVSIDSAFQAESYIQMKRIAVGTFENTYINTVNGVTYSSLEHHHHHH
# How the values were obtained:
# Assay in all cases: glycan array binding signal (z-score within array); higher = stronger binding
# Conditions in all cases: glycan notation: IUPAC condensed, linker removed
# Fuc(a1-3)GlcNAc = target: Fuc(a1-3)GlcNAc
# Procedure, shortened: (§1)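 The binding signal is a Z-score computed within each array. Data were drawn from 3228 arrays in the Consortium for Functional Glycomics database, restricted to those with a known protein sequence. Scores were averaged over arrays of the same protein sequence at different concentrations or buffers, and over linkers, and negative values can be taken as non-binding.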
# [1] = target: Fuc(a1-3)[Gal(b1-4)]Glc6S
# Procedure, shortened: as §1
# [2] = target: Fuc(a1-3)[Gal(b1-4)]GlcNAc
# Procedure, shortened: as §1
# [3] = target: Fuc(a1-3)[Gal(b1-4)]GlcNAc(b1-2)Man
# Procedure, shortened: as §1
# [4] = target: Fuc(a1-3)[Gal(b1-4)]GlcNAc(b1-2)Man(a1-3)[Fuc(a1-3)[Gal(b1-4)]GlcNAc(b1-2)Man(a1-6)]Man(b1-4)GlcNAc(b1-4)GlcNAc
# Procedure, shortened: as §1
# [5] = target: Fuc(a1-3)[Gal(b1-4)]GlcNAc(b1-2)Man(a1-3)[Fuc(a1-3)[Gal(b1-4)]GlcNAc(b1-2)Man(a1-6)]Man(b1-4)GlcNAc(b1-4)[Fuc(a1-6)]GlcNAc
# Procedure, shortened: as §1
# [6] = target: Fuc(a1-3)[Gal(b1-4)]GlcNAc(b1-3)Gal(b1-3)[Fuc(a1-4)]GlcNAc
# Procedure, shortened: as §1
# [7] = target: Fuc(a1-3)[Gal(b1-4)]GlcNAc(b1-3)Gal(b1-4)[Fuc(a1-3)]GlcNAc
# Procedure, shortened: as §1
# [8] = target: Fuc(a1-3)[Gal(b1-4)]GlcNAc(b1-3)Gal(b1-4)[Fuc(a1-3)]GlcNAc(b1-3)Gal(b1-4)[Fuc(a1-3)]GlcNAc
# Procedure, shortened: as §1
# [9] = target: Fuc(a1-3)[Gal(b1-4)]GlcNAc(b1-3)GalNAc
# Procedure, shortened: as §1
# [10] = target: Fuc(a1-3)[Gal(b1-4)]GlcNAc(b1-6)GalNAc
# Procedure, shortened: as §1
# [11] = target: Fuc(a1-3)[Gal(b1-4)]GlcNAc(b1-6)[Gal(b1-3)GlcNAc(b1-3)]Gal(b1-4)Glc
# Procedure, shortened: as §1
# [12] = target: Fuc(a1-3)[Gal(b1-4)]GlcNAc6S
# Procedure, shortened: as §1
# [13] = target: Fuc(a1-3)[Gal3S(b1-4)]Glc
# Procedure, shortened: as §1
# [14] = target: Fuc(a1-3)[Gal3S(b1-4)]GlcNAc
# Procedure, shortened: as §1
# [15] = target: Fuc(a1-3)[Gal3S(b1-4)]GlcNAc6S
# Procedure, shortened: as §1
# [16] = target: Fuc(a1-3)[GalNAc(b1-4)]GlcNAc
# Procedure, shortened: as §1
# [17] = target: Fuc(a1-3)[GalNAc(b1-4)]GlcNAc6S
# Procedure, shortened: as §1
# Fuc(a1-4)GlcNAc = target: Fuc(a1-4)GlcNAc
# Procedure, shortened: as §1
# Fuc(b1-3)GlcNAc = target: Fuc(b1-3)GlcNAc
# Procedure, shortened: as §1
# Gal(a1-2)Gal = target: Gal(a1-2)Gal
# Procedure, shortened: as §1
# Gal(a1-3)Gal = target: Gal(a1-3)Gal
# Procedure, shortened: as §1
# Gal(a1-3)Gal(b1-3)GlcNAc = target: Gal(a1-3)Gal(b1-3)GlcNAc
# Procedure, shortened: as §1
# [18] = target: Gal(a1-3)Gal(b1-3)GlcNAc(b1-2)Man
# Procedure, shortened: as §1
# [19] = target: Gal(a1-3)Gal(b1-3)GlcNAc(b1-2)Man(a1-3)[Gal(a1-3)Gal(b1-3)GlcNAc(b1-2)Man(a1-6)]Man(b1-4)GlcNAc(b1-4)GlcNAc
# Procedure, shortened: as §1
# [20] = target: Gal(a1-3)Gal(b1-3)GlcNAc(b1-3)GalNAc
# Procedure, shortened: as §1
# [21] = target: Gal(a1-3)Gal(b1-3)GlcNAc(b1-6)GalNAc
# Procedure, shortened: as §1
# [22] = target: Gal(a1-3)Gal(b1-3)[Fuc(a1-4)]GlcNAc(b1-2)Man(a1-3)[Gal(a1-3)Gal(b1-3)[Fuc(a1-4)]GlcNAc(b1-2)Man(a1-6)]Man(b1-4)GlcNAc(b1-4)GlcNAc
# Procedure, shortened: as §1
# Gal(a1-3)Gal(b1-4)Glc = target: Gal(a1-3)Gal(b1-4)Glc
# Procedure, shortened: as §1
# Gal(a1-3)Gal(b1-4)GlcNAc = target: Gal(a1-3)Gal(b1-4)GlcNAc
# Procedure, shortened: as §1
# [23] = target: Gal(a1-3)Gal(b1-4)GlcNAc(b1-2)Man
# Procedure, shortened: as §1
# [24] = target: Gal(a1-3)Gal(b1-4)GlcNAc(b1-2)Man(a1-3)[Gal(a1-3)Gal(b1-4)GlcNAc(b1-2)Man(a1-6)]Man(b1-4)GlcNAc(b1-4)GlcNAc
# Procedure, shortened: as §1
# [25] = target: Gal(a1-3)Gal(b1-4)GlcNAc(b1-3)GalNAc
# Procedure, shortened: as §1
# [26] = target: Gal(a1-3)Gal(b1-4)GlcNAc(b1-6)GalNAc
# Procedure, shortened: as §1
# [27] = target: Gal(a1-3)Gal(b1-4)[Fuc(a1-3)]GlcNAc
# Procedure, shortened: as §1
# [28] = target: Gal(a1-3)Gal(b1-4)[Fuc(a1-3)]GlcNAc(b1-2)Man(a1-3)[Gal(a1-3)Gal(b1-4)[Fuc(a1-3)]GlcNAc(b1-2)Man(a1-6)]Man(b1-4)GlcNAc(b1-4)GlcNAc
# Procedure, shortened: as §1
# Gal(a1-3)GalNAc = target: Gal(a1-3)GalNAc
# Procedure, shortened: as §1
binder,measurement,setting,value
B1,glycan array binding signal (z-score),Fuc(a1-3)GlcNAc,-1.06
same,glycan array binding signal (z-score),[1],0.785
same,glycan array binding signal (z-score),[2],0.506
same,glycan array binding signal (z-score),[3],0.809
same,glycan array binding signal (z-score),[4],-0.441
same,glycan array binding signal (z-score),[5],1.75
same,glycan array binding signal (z-score),[6],0.345
same,glycan array binding signal (z-score),[7],1.4
same,glycan array binding signal (z-score),[8],-0.452
same,glycan array binding signal (z-score),[9],2.23
same,glycan array binding signal (z-score),[10],1.05
same,glycan array binding signal (z-score),[11],-0.586
same,glycan array binding signal (z-score),[12],1.51
same,glycan array binding signal (z-score),[13],0.248
same,glycan array binding signal (z-score),[14],0.069
same,glycan array binding signal (z-score),[15],-0.212
same,glycan array binding signal (z-score),[16],0.751
same,glycan array binding signal (z-score),[17],-0.191
same,glycan array binding signal (z-score),Fuc(a1-4)GlcNAc,-0.968
same,glycan array binding signal (z-score),Fuc(b1-3)GlcNAc,-0.191
same,glycan array binding signal (z-score),Gal(a1-2)Gal,-0.789
same,glycan array binding signal (z-score),Gal(a1-3)Gal,-0.4
same,glycan array binding signal (z-score),Gal(a1-3)Gal(b1-3)GlcNAc,-0.086
same,glycan array binding signal (z-score),[18],-0.167
same,glycan array binding signal (z-score),[19],3.54
same,glycan array binding signal (z-score),[20],1.43
same,glycan array binding signal (z-score),[21],0.258
same,glycan array binding signal (z-score),[22],3.25
same,glycan array binding signal (z-score),Gal(a1-3)Gal(b1-4)Glc,-0.265
same,glycan array binding signal (z-score),Gal(a1-3)Gal(b1-4)GlcNAc,-1.07
same,glycan array binding signal (z-score),[23],-0.684
same,glycan array binding signal (z-score),[24],1.61
same,glycan array binding signal (z-score),[25],-1.13
same,glycan array binding signal (z-score),[26],-0.833
same,glycan array binding signal (z-score),[27],-0.216
same,glycan array binding signal (z-score),[28],0.406
same,glycan array binding signal (z-score),Gal(a1-3)GalNAc,0.389

# Two entries picked at random from the list so far:
binder,measurement,setting,value
B1,glycan array binding signal (z-score),[24],1.61
same,glycan array binding signal (z-score),[3],0.809
